According to the supplement of paper PMC7661543:
± gives the standard deviation of the averaged measurements. Differences between knockout arms are mostly noise.

Tested on: ZR-75-1
Experiment: relative cell number vs DMSO control (72 h) (% of DMSO); higher = less growth inhibition (more cells)
Method: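 QMAP-Seq: a pool of 5 breast cancer cell lines (ZR-75-1, SKBR3, HCC-38, MDA-MB-231, BT-20), each carrying 12 doxycycline-inducible Cas9 sgRNA perturbations (11 knockouts plus non-targeting sgNT), was treated with compounds for 72 h at four 10-fold doses (10 nM-10 uM or 1 nM-1 uM range). Barcodes were amplified and sequenced, and cell number was interpolated from 293T spike-in standard curves. The result is expressed as % of the median of DMSO wells. Two biological replicates.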

[1] = sgRNA knockout: sgATF3, 1000 nM
[2] = sgRNA knockout: sgATF3, 10000 nM
[3] = sgRNA knockout: sgATF4, 1000 nM
[4] = sgRNA knockout: sgATF4, 10000 nM
[5] = sgRNA knockout: sgATF6, 1000 nM
[6] = sgRNA knockout: sgATF6, 10000 nM
[7] = sgRNA knockout: sgATG7, 1000 nM
[8] = sgRNA knockout: sgATG7, 10000 nM
[9] = sgRNA knockout: sgERN1, 1000 nM
[10] = sgRNA knockout: sgERN1, 10000 nM
[11] = sgRNA knockout: sgHSF2, 1000 nM
[12] = sgRNA knockout: sgHSF2, 10000 nM
[13] = sgRNA knockout: sgNFE2L2, 10 nM
[14] = sgRNA knockout: sgNFE2L2, 100 nM
[15] = sgRNA knockout: sgNFE2L2, 1000 nM
[16] = sgRNA knockout: sgNFE2L2, 10000 nM
[17] = sgRNA knockout: sgSLC35F2, 10 nM
[18] = sgRNA knockout: sgSLC35F2, 100 nM
[19] = sgRNA knockout: sgSLC35F2, 1000 nM
[20] = sgRNA knockout: sgSLC35F2, 10000 nM
[21] = sgRNA knockout: sgXBP1, 1000 nM
[22] = sgRNA knockout: sgXBP1, 10000 nM

SMILES | relative cell number (sgRNA knockout: sgATF3, 10 nM) | relative cell number (sgRNA knockout: sgATF3, 100 nM) | relative cell number [1] | relative cell number [2] | relative cell number (sgRNA knockout: sgATF4, 10 nM) | relative cell number (sgRNA knockout: sgATF4, 100 nM) | relative cell number [3] | relative cell number [4] | relative cell number (sgRNA knockout: sgATF6, 10 nM) | relative cell number (sgRNA knockout: sgATF6, 100 nM) | relative cell number [5] | relative cell number [6] | relative cell number (sgRNA knockout: sgATG7, 10 nM) | relative cell number (sgRNA knockout: sgATG7, 100 nM) | relative cell number [7] | relative cell number [8] | relative cell number (sgRNA knockout: sgERN1, 10 nM) | relative cell number (sgRNA knockout: sgERN1, 100 nM) | relative cell number [9] | relative cell number [10] | relative cell number (sgRNA knockout: sgHSF2, 10 nM) | relative cell number (sgRNA knockout: sgHSF2, 100 nM) | relative cell number [11] | relative cell number [12] | relative cell number [13] | relative cell number [14] | relative cell number [15] | relative cell number [16] | relative cell number [17] | relative cell number [18] | relative cell number [19] | relative cell number [20] | relative cell number (sgRNA knockout: sgXBP1, 10 nM) | relative cell number (sgRNA knockout: sgXBP1, 100 nM) | relative cell number [21] | relative cell number [22]
S=c1nc[nH]c2nc[nH]c12 [6-Mercaptopurine] | 134 ± 27 | 77.1 ± 2 | 82.6 ± 24 | 56.1 ± 2.2 | 125 ± 6.2 | 97 ± 41 | 82.3 ± 5.3 | 50.91 ± 0.17 | 97.9 ± 8.6 | 69 ± 2 | 98.7 ± 6.8 | 45.4 ± 11 | 100 ± 30 | 71.9 ± 23 | 93.3 ± 15 | 60 ± 19 | 114 ± 28 | 94.2 ± 28 | 86.1 ± 0.87 | 65 ± 7.2 | 104 ± 2 | 84.3 ± 11 | 81.7 ± 18 | 58 ± 3.5 | 80.1 ± 18 | 63.1 ± 13 | 108 ± 11 | 56.5 ± 5.7 | 101 ± 51 | 79.7 ± 6 | 90.5 ± 1.9 | 52.2 ± 7.4 | 89.7 ± 12 | 63.9 ± 5 | 92.6 ± 0.99 | 51.37 ± 0.5
COc1cc(CCc2cc(NC(=O)c3ccc(N4CC(C)NC(C)C4)cc3)n[nH]2)cc(OC)c1 (stereo not drawn) [AZD4547] | 99 ± 18 | 82.5 ± 30 | 85.1 ± 15 | 30.3 ± 1.6 | 80 ± 33 | 76.4 ± 14 | 107 ± 31 | 26.9 ± 16 | 85.5 ± 0.58 | 107 ± 17 | 108 ± 62 | 29.1 ± 4.3 | 95.8 ± 14 | 69.03 ± 0.41 | 95 ± 2.7 | 15.2 ± 2.5 | 68 ± 23 | 90.4 ± 9.1 | 84.1 ± 18 | 33.5 ± 7.8 | 89.6 ± 23 | 90 ± 30 | 90.6 ± 11 | 34.8 ± 2.9 | 111 ± 30 | 87.96 ± 0.19 | 117 ± 5.1 | 35.1 ± 0.76 | 69.9 ± 11 | 70.6 ± 46 | 64.4 ± 12 | 34.8 ± 6.5 | 91.3 ± 5.6 | 83.3 ± 6.8 | 102 ± 2.9 | 32.1 ± 1.8
Cn1c(CCCC(=O)O)nc2cc(N(CCCl)CCCl)ccc21 [Bendamustine] | 103 ± 7 | 87.3 ± 1.4 | 72.9 ± 9.9 | 137 ± 11 | 101 ± 14 | 105 ± 60 | 115 ± 14 | 165 ± 57 | 108 ± 3.4 | 72 ± 41 | 78.5 ± 6.8 | 93.2 ± 25 | 69.3 ± 32 | 86 ± 38 | 101 ± 10 | 106 ± 29 | 82.9 ± 19 | 110 ± 41 | 85.49 ± 0.77 | 95.2 ± 13 | 80.2 ± 24 | 83.4 ± 2 | 106 ± 34 | 84.9 ± 2.3 | 104 ± 58 | 119.7 ± 0.91 | 110 ± 2.5 | 107 ± 34 | 114 ± 2.9 | 123 ± 82 | 90 ± 26 | 133 ± 40 | 89.3 ± 36 | 105 ± 5.3 | 108 ± 2.9 | 88 ± 10
